Experimental data taken from the supplement of paper PMC7752906.
Where a name gives a salt, the structure may show the parent alone. The list shows a part of the results. Single values are uncertain here, since repeats match poorly.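 Test system: Schistosoma mansoni schistosomula, roughly 40 per well, imaged in bright field over time and compared with wells given 0.1% DMSO. Distance read-out: the paper calls a drug a hit when its Mahalanobis distance is at least 2.47, three standard deviations above the DMSO control mean. Degeneracy is the share of worms classified opaque.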

Test system: Schistosoma mansoni schistosomula
Test: Mahalanobis distance of static-rate-frequency phenotype descriptors from DMSO controls (dimensionless); higher = stronger phenotypic change versus DMSO
Details: 10 µM; 72 h

SMILES | Mahalanobis distance
COC(=O)Nc1nc2cc(C(=O)c3ccccc3)ccc2[nH]1 [Mebendazole] | inactive: 1.87
Cc1cc2c(cc1S(N)(=O)=O)S(=O)(=O)CCC2 [Meticrane] | inactive: 1.22
Cc1c(C)c2c(c(C)c1O)CCC(C)(COc1ccc(CC3SC(=O)NC3=O)cc1)O2 (configuration not stated) [Troglitazone] | inactive: 1.28
CC(C(=O)O)c1ccc2c(c1)Cc1cccnc1O2 (configuration not stated) [Pranoprofen] | inactive: 2.08
CN(C)CCCN1c2ccccc2Sc2ccccc21 [Promazine] | active: 2.52
CC(C)(C(=O)O)c1ccc(C(O)CCCN2CCC(C(O)(c3ccccc3)c3ccccc3)CC2)cc1 (configuration not stated) [Fexofenadine] | inactive: 2.13
CN(N=O)C(=O)N[C@H]1C(O)O[C@H](CO)[C@@H](O)[C@@H]1O (mixture of isomers) [Streptozosin] | inactive: 1.74
Cc1onc(-c2ccccc2)c1-c1ccc(S(N)(=O)=O)cc1 [Valdecoxib] | inactive: 2.15
C[C@]12CCC(=O)C=C1CC[C@@H]1[C@@H]2[C@@H](O)C[C@@]2(C)[C@H]1CC[C@]2(O)C(=O)CO [Hydrocortisone] | inactive: 1.78
CCOC(=O)C1=C[C@@H](OC(CC)CC)[C@H](NC(C)=O)[C@@H](N)C1 [Oseltamivir] | inactive: 1.74
Oc1ncnc2[nH]ncc12 [Allopurinol] | inactive: 2.46
CC1(C)S[C@@H]2[C@H](NC(=O)[C@H](N)c3ccc(O)cc3)C(=O)N2[C@H]1C(=O)O [Amoxicillin] | inactive: 2.3
CCC(=O)O[C@@H](O[P@](=O)(CCCCc1ccccc1)CC(=O)N1C[C@H](C2CCCCC2)C[C@H]1C(=O)O)C(C)C [Fosinopril] | inactive: 2.32
COc1cccc2c1C(=O)c1c(O)c3c(c(O)c1C2=O)C[C@@](O)(C(=O)CO)C[C@@H]3O[C@H]1C[C@H](N)[C@H](O)[C@H](C)O1 [Doxorubicin] | inactive: 2.2
OCCOCCN1CCN(C2=Nc3ccccc3Sc3ccccc32)CC1 [Quetiapine] | inactive: 1.76
Cc1ccc2c(Br)cc(Br)c(OC(=O)c3ccccc3)c2n1 [broxaldine] | inactive: 1.75
CN[C@@H]1[C@H](O[C@H]2[C@H](O[C@H]3[C@H](O)[C@@H](O)[C@H](N=C(N)N)[C@@H](O)[C@@H]3N=C(N)N)O[C@@H](C)[C@]2(O)C=O)O[C@@H](CO)[C@H](O)[C@H]1O [Streptomycin Sulfate] | active: 2.55
Nc1nc(Cl)nc2c1ncn2[C@H]1C[C@H](O)[C@@H](CO)O1 [Cladribine] | inactive: 2.08
Cc1ccc(Nc2c(F)cccc2Cl)c(CC(=O)O)c1 [Lumiracoxib] | inactive: 2.17
Fc1ccc(C(c2ccc(F)cc2)N2CCN(C/C=C/c3ccccc3)CC2)cc1 [flunarizine] | active: 3.23
CN1CCc2c(c3ccccc3n2Cc2ccccc2)C1 [Mebhydrolin Naphthalenesulfonate] | active: 3.59

SMILES | Mahalanobis distance
O=C(OC[C@H]1O[C@@H](OC(=O)c2cc(O)c(O)c(OC(=O)c3cc(O)c(O)c(O)c3)c2)[C@H](OC(=O)c2cc(O)c(O)c(OC(=O)c3cc(O)c(O)c(O)c3)c2)[C@@H](OC(=O)c2cc(O)c(O)c(OC(=O)c3cc(O)c(O)c(O)c3)c2)[C@@H]1OC(=O)c1cc(O)c(O)c(OC(=O)c2cc(O)c(O)c(O)c2)c1)c1cc(O)c(O)c(OC(=O)c2cc(O)c(O)c(O)c2)c1 [Tannic Acid] | inactive: 2.3
CC(=O)O[C@@]12CO[C@@H]1C[C@H](O)[C@@]1(C)C(=O)[C@H](O)C3=C(C)[C@@H](OC(=O)[C@H](O)[C@@H](NC(=O)OC(C)(C)C)c4ccccc4)C[C@@](O)([C@@H](OC(=O)c4ccccc4)[C@H]21)C3(C)C [Docetaxel] | active: 2.76
CC1CNc2c(cccc2S(=O)(=O)N[C@@H](CCCNC(=N)N)C(=O)N2CC[C@@H](C)C[C@@H]2C(=O)O)C1 (some centres not stated) [Argatroban] | inactive: 1.47
CN(C)CCN(Cc1ccccc1)c1ccccn1 [Tripelennamine] | active: 2.98
CN1C(=O)CC(c2ccccc2)C1=O (configuration not stated) [Phensuccimide] | inactive: 2.38
Nc1ccn([C@@H]2O[C@H](CO)[C@@H](O)C2(F)F)c(=O)n1 [Gemcitabine] | inactive: 1.78
N=C(N)NC(=O)Cc1c(Cl)cccc1Cl [Guanfacine Hydrochloride] | active: 3.6
O=C(O)CC(O)(CC(=O)O)C(=O)O [Citric Acid] | inactive: 2.2
COc1ccc2[nH]c([S+]([O-])Cc3ncc(C)c(OC)c3C)nc2n1 (configuration not stated) [Tenatoprazole] | inactive: 2.25
O=C(O)CCCCC(=O)O [Adipic Acid, Hexanedioic Acid] | inactive: 2.22
CN(C)CC/C=C1/c2ccccc2Sc2ccc(Cl)cc21 [Chlorprothixene Hydrochloride] | inactive: 1.91
CCN(CC)C(=O)c1cccc(C)c1 [Deet, Diethyltoluamide] | inactive: 1.98
CCN(CC)C(=O)c1cccnc1 [Nikethamide] | inactive: 1.66
CCCN(CCC)S(=O)(=O)c1ccc(C(=O)O)cc1 [Probenecid] | inactive: 2.31
C[C@]12CC[C@@H]3c4ccc(O)cc4CC[C@H]3[C@@H]1CC[C@@H]2O [Estradiol] | inactive: 1.41
C[C@]12CC[C@@H]3c4ccc(O)cc4CC[C@H]3[C@@H]1CC[C@@H]2O [Beta-estradiol] | inactive: 1.7
COc1cc(C(=O)NCCCCCC(=O)O)cc(OC)c1OC [Capobenic Acid] | inactive: 1.99
CC1=C(C(=O)O)N2C(=O)[C@@H](NC(=O)[C@H](N)C3=CCC=CC3)[C@H]2SC1 [Cephradine] | inactive: 1.21
N[C@@H](CCC(=O)N[C@@H](CS)C(=O)NCC(=O)O)C(=O)O [Glutathione] | inactive: 2.22
Cc1ncc(CO)c(CO)c1O [Pyridoxine] | inactive: 1.4
N=C(N)NS(=O)(=O)c1ccc(N)cc1 [Sulfaguanidine] | inactive: 1.51

Given in CSV form: part of the list above
SMILES,Mahalanobis distance
"O=C(O)CCCCC(=O)O [Adipic Acid, Hexanedioic Acid]",inactive: 2.22
CN(C)CC/C=C1/c2ccccc2Sc2ccc(Cl)cc21 [Chlorprothixene Hydrochloride],inactive: 1.91
